Five sequences from the DeepSol protein solubility set can be followed below.

The data set in a line: soluble on expression in E. coli; label from the status in PepcDB or PDB records.

As to “GAMAEMDPVAEFPQPPGAARWAEVMARFAARLGAQGRRVVLVTSGGTKVPLEARPVRFLDNFSSGRRGATSAEAFLAAGYGVLFLYRARSAFPYAHRFPPQTWLSALRPSGPALSGLLSLEAEENALPGFAEALRSYQEAAAAGTFLVVEFTTLADYLHLLQAAAQALNPLGPSAMFYLAAAVSDFYVPVSEMPEHKIESSGGPLQITMKMVPKLLSPLVKDWAPKAFIISFKLETDPAIVINRARKALEIYQHQVVVANILESRQSFVLIVTKDSETKLLLSEEEIEKGVEIEEKIVDNLQSRHTAFIGDRN”, the “soluble on expression in E. coli” value is given as “soluble”. Next, “MGSDKIHHHHHHMSQTTSIMEHDQLNSGIYCGKINHRRHTPKLHSFGYNIAMMAIDLDELPALTAVSKLFSTDKFTPLKFNPSDYLNSLKQQFGDQLMLSSASRGDDAGALKQRVLATIKHLGATQTCDKVIFSGQIRHFGFYFSPVNFYFCYHQNDMVYMLAEVSNTPWNERHCYLVDIANTAQTDKVFHVSPFMNLDMHYLWRITPPAKHLKVTIENRNANNDKLFDAGLVLKRQSINSSSIRRFMLNYPLMTSKIMLGIYWQAMKLFFKRIPFVSKQTIKAN”: “not soluble”; “MSLGDLKLWYKQPAGTWVEALPVGNSRMGAMVYGGTAREELQLNDETMWGGSPYRNDKPEALESLPQVRELIFAGKNMEAQNLIQENFYAGKHGMPYQTIGSLIIETPGHEKVTDYYRDLDLERAVATTRYKVDGVTFQREVFASFPDKVVVVRLTADRPGKLNFKVGYVSPLEHKVSRKGKKLVLTGKGRDHEGVKGLIRMETQTQADVDGGKVKIDDQNITVEGADSVTLYVSSGTNFINYHDISGNESKKASGYLSLALGRPYSQVLQEHIALYKEQFDRVRLDLGTSERAKLETVKRIELFNEGKDVSLAVLLFQYGRYLLISSSQPGGQPANLQGIWNNKLAAPWDGKYTININTEMNYWPAEVTNLSETHQPLFEMVKELSVTGRETARTMYGCNGWVAHHNTDIWRATGPVDKAFYGTWPMGGAWLTTHLWQHYLYSGDKLFLSEAYPALKGAADFYLDYLTEHPEYGWMVTAPSMSPEHGPSGEDTKKASTIVSGCTMDNQIIFDVLSNALHASRILKMSASYQDSLRSMLNRLAPMQIGKYNQLQEWLEDLDNPNDKHRHISHVYGLFPSNQISPYTHPLLFQAAKNTLLQRGDEATGWSIGWKVNLWARLLDGNHAFRIINNMLKLLPGDEVKEAYPQGRTYPNLFDAHPPFQIDGNFGYTAGVAEMLLQSHDGAVHLLPALPDAWATGSVQGLVARGGFVVDMNWNGVQLDKAKIHSRLGGNLRLRSYVPLRGVGLKEAKGKNPNEYYMQADIKEPLVSKEINPQYPALYKVYEYDLMTEQGQDYIVERGEGHHHHHH”: “soluble”. Next, “AIAKIIVGIGGVTNGGKTTLTNKLINSLPNCCVVHQDDFFKPQDKIEVEDGFKQYDVITALDMEAMMSTIDGWQKDPAKFERSHGINNELDSEAPQDAEKREILHILIVEGFLLYTYKPLIDLFTKCYFLSVPYDECKRRRSSRNYTVPDPPGLFDGHVWPMYIKHKNIMEELTVNVEQLDGTNTREELFNRVYGDILDLINSKE”: “soluble”; “MPFKRTKVKLKKEIVTMGVDGIDPKRIVGTYVEPQQWNDLISDPDVVLVDTRNQYEVEIGTFKNAVNPATDTFREFPEYVKQNLDPQKHKKVAMFCTGGIRCEKSTAYLKEQGFEEVYHLKGGILKYLEEVPQLEHHHHHH”: “not soluble”.
